Test [1] concerns the target 5-hydroxytryptamine receptor 1A (UniProt P08908). In words: co-IP; 1 x 10^7 cells in IP lysis buffer (20 mM HEPES, 150 mM NaCl, 50 mM KCl, 2 mM MgCl2, 5 mM EDTA pH 8.0, 100 mM NaF, 1% NP40, 10% glycerol); protein A/G magnetic beads with primary antibody or control IgG overnight at 4 °C; western blot. On the technique in general: A western blot detects proteins with antibodies after separation by electrophoresis.

By UniProt entry, the sequences of proteins in these tests, tags left out. Residues count along the entry.
UniProt P08908: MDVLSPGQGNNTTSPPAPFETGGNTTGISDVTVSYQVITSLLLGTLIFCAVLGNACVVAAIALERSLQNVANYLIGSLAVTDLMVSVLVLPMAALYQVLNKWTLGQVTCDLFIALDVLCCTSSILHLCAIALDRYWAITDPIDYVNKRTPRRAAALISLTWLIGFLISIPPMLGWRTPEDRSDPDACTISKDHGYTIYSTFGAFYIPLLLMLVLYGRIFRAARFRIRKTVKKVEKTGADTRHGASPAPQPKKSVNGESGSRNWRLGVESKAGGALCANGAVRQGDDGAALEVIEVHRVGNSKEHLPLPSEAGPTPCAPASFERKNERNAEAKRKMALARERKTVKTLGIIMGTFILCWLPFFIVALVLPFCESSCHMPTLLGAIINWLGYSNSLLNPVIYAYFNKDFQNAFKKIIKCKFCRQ
UniProt P37173, residues 23-567: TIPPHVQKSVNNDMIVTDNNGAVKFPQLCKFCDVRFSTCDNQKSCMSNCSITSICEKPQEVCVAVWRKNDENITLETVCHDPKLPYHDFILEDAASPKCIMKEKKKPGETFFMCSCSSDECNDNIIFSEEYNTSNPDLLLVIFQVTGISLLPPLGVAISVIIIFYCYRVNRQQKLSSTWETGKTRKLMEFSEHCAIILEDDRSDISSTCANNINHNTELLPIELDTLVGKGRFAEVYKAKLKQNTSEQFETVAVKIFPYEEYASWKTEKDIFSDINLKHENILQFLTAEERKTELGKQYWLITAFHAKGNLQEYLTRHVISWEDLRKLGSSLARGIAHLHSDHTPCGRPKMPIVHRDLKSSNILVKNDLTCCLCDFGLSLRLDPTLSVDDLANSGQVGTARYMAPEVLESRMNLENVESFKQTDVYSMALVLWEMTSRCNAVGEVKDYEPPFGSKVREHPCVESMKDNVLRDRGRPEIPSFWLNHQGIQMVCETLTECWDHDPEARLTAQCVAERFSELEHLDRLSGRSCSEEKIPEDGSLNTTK
UniProt P51665: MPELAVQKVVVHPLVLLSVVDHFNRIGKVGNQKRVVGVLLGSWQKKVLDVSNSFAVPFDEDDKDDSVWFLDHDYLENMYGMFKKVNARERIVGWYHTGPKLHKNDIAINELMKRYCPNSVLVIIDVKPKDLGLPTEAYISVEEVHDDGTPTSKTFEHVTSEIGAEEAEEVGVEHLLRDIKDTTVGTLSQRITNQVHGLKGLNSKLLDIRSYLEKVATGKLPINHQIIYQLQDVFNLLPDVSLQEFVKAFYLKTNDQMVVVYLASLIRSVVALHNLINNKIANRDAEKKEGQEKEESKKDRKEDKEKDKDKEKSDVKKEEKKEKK
UniProt P19474: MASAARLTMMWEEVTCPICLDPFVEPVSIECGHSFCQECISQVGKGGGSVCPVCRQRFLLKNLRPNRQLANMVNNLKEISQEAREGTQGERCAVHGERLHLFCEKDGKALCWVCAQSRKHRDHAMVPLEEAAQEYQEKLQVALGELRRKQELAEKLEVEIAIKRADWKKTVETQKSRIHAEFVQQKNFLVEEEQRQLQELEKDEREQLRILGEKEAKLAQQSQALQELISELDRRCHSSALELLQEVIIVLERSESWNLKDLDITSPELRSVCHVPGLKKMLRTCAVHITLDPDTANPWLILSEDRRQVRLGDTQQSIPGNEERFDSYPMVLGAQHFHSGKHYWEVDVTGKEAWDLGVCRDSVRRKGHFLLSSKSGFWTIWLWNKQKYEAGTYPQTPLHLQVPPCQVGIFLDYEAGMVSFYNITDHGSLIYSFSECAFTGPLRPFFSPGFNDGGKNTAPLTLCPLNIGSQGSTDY

The target in a further test is TβRII (UniProt P37173). Described as above.

The source of these data is PMC9036047.

No constants are given. Whether binding was seen depends on the method and setting. Binding seen in cells or lysates may run through a third protein. Some results given as binding are weak or reduced against the parent protein; the word gives no strength.

As for PSMD7 (from UniProt P51665 1-324), the binding entry in test [1] is listed as “binds”.

“TRIM21 (from UniProt P19474 1-475) (enzyme)”: the binding entry (in test [1]; in the test with TβRII) was “binds” each time.
